# Assay results as given in PubChem BioAssay AID1347076 (National Center for Advancing Translational Sciences (NCATS), 2019).
# In all, about 400,000 compounds went through this assay and about 13,000 (3.2%) were called active. Inconclusive means that the source gave no clear call. Such entries were picked first, then a sample of the others. The call rests on the fitted dose curve; in most records, active means well fitted cell-killing curve with a large enough effect; inconclusive means small, poorly fitted or top-dose-only effect, or effect the other way; inactive means flat fitted curve, though single readings scatter. Potencies beside an inconclusive call are fits to weak or partial responses and may not hold up.
# Experiment: qHTS assay for MDR1-selective chemotherapeutics: Primary screen using the drug-selected MDR subline cells KB-V1; further: nearly all actives have a fitted effect of over 60% in size
# Settings: KB-V1 MDR cells viability, CellTiter-Glo, 72 h; activity change, negative = cytotoxicity: at 46.1 µM (top of the series)
# How it was run: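 Potencies derive from concentration-effect curves fitted to normalized luminescence (CellTiter-Glo) of KB-V1 cells treated for 72 h at 37 degrees C in phenol-red-free DMEM containing 10% FBS.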
# On the % scale 0 is the no-effect control and ±100 the full control effect; potency means the concentration at half of the fitted maximal effect.
Structure (SMILES),"activity change, negative = cytotoxicity",Potency
CCOc1ccccc1NC(=O)CSc1cn[nH]n1,inactive: 27.7%,
Cc1cc(C(=O)NCCc2ccc(Cl)cc2)c2c(C)nn(-c3cccc(F)c3)c2n1,inactive: -5.28%,
CCOC(=O)C1(Cc2cccc(OC)c2)CCCN(C(=O)CSC)C1 (stereo not given),,"inconclusive: 14.6 µM [cytotoxic, single point]"
C=CCNC(=O)C1CCN(c2cnccn2)CC1,,"inconclusive: 29.1 µM [rising, single point]"
O=C(CCC1CCCN(C(=O)Cc2ccc(F)cc2)C1)N1CCN(c2ccccn2)CC1 (stereo not given),,active: 16.4 µM
Cc1ccnc(NC(=O)CCC2COc3ccccc3O2)c1 (stereo not given),,"inconclusive: 29.1 µM [cytotoxic, single point]"
N#Cc1ccccc1NC(=O)COC(=O)CCc1ccc(S(=O)(=O)N2CCCCC2)cc1,,"inconclusive: 7.31 µM [rising, partial curve]"
COC(=O)c1sccc1NC(=O)Nc1cc(OC)ccc1OC,,"inconclusive: 2.91 µM [rising, full curve]"
Nc1ncccc1OCc1cccc(C(F)(F)F)c1,,"inconclusive: 18.4 µM [cytotoxic, partial curve, poor fit]"
CCOC(=O)C1CCCN(S(=O)(=O)c2cc(OCC(=O)NC3CCCCC3)c(C)cc2Cl)C1 (stereo not given),,active: 16.4 µM
CC1CCN(C(=O)CSc2ccc(-c3ccc(F)cc3)nn2)CC1,,active: 16.4 µM
COc1ccc(N(CC(=O)NCCc2cccc(C)c2)S(=O)(=O)c2c(C)noc2C)cc1,,inactive
Cc1ccc(NC(=O)CN(C)c2ccc(S(=O)(=O)N3CCCC3)cn2)cc1,,"inconclusive: 25.9 µM [cytotoxic, partial curve, poor fit]"
Cc1ccc(C(=O)c2cc([N+](=O)[O-])ccc2N2CCCCC2)c(C)c1,,active: 1.64 µM
Nc1c(C(=O)NC2CCCC2)c2nc3ccccc3nc2n1/N=C/c1ccco1,inactive: -21.8%,
N#C/C(=C(/O)c1ccc([N+](=O)[O-])o1)c1nc2ccccc2[nH]1,,"inconclusive: 18.4 µM [cytotoxic, partial curve, poor fit]"
O=C(NCCCn1ccnc1)c1cccc(Cl)c1,,"inconclusive: 16.4 µM [rising, partial curve]"
COc1cc(C)c(NC(=O)c2cc(C3CC3)nc3c2cnn3C(C)C)cc1OC,,"inconclusive: 23.1 µM [cytotoxic, single point]"
O=C1NC(c2ccc3ccccc3c2)Nc2ccccc21 (stereo not given),,active: 16.4 µM
COc1ccc(C(=O)Nc2nc3ccccc3[nH]2)cc1,,"inconclusive: 16.4 µM [cytotoxic, single point]"

# A second format for 2 compounds above.
Structure (SMILES) | activity change, negative = cytotoxicity | Potency
COc1ccc(N(CC(=O)NCCc2cccc(C)c2)S(=O)(=O)c2c(C)noc2C)cc1 |  | inactive
COc1ccc(C(=O)Nc2nc3ccccc3[nH]2)cc1 |  | inconclusive: 16.4 µM [cytotoxic, single point]
